Measured data: PubChem BioAssay AID1224830 (NIAID, 2016)
In all, the deposit lists about 18,000 reagents; this is a random part of them. About 2,900 of them (16%) were called active. 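Calls are made per well; low scores hint the gene aids the LPS response, high scores that it dampens it.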 Repeated entries: four replicate wells of each siRNA pool.

Assay: 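Regulators of TLR4 signalling towards TNF-alpha in macrophage-like cells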 (primary screen)
System: human THP-1 monocytic leukaemia cells, TNF dual-luciferase reporter clone, PMA-differentiated to macrophage-like cells
Reagents: siRNA pool against human genes, 50 nM
Duration: LPS for 4 h, given about 3 days after siRNA transfection
Challenge: bacterial LPS (TLR4 ligand), 10 ng/ml
Read-out: 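TNF firefly reporter luminescence divided by renilla, normalised to the plate median, then turned into a robust z-score for each replicate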
Reading the numbers: TNF reporter robust z-score: higher = stronger TNF reporter response to LPS
Active means: 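a well is active when its z-score exceeds 2.8 or falls below -1.5; control wells carry no call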

For CD274 (CD274 molecule), what does the deposit list?
TNF reporter robust z-score: -0.38; Call: inactive

Which result is listed for CD274 (CD274 molecule)?
TNF reporter robust z-score: 0.3; Call: inactive

Which result is listed for CD274 (CD274 molecule)?
TNF reporter robust z-score: 1.94; Call: inactive

Which result is listed for CD274 (CD274 molecule)?
TNF reporter robust z-score: 6.27; Call: active

How did the screen score AFG2A (AAA ATPase AFG2A)?
TNF reporter robust z-score: 0.12; Call: inactive

How did the screen score AFG2A (AAA ATPase AFG2A)?
TNF reporter robust z-score: -0.36; Call: inactive

What is on record for AFG2A (AAA ATPase AFG2A)?
TNF reporter robust z-score: -1.07; Call: inactive

With AFG2A (AAA ATPase AFG2A), what does the deposit list?
TNF reporter robust z-score: -0.73; Call: inactive

With SPC25 (SPC25 component of NDC80 kinetochore complex), what does the deposit list?
TNF reporter robust z-score: 0.23; Call: inactive

With SPC25 (SPC25 component of NDC80 kinetochore complex), what was measured?
TNF reporter robust z-score: 1.29; Call: inactive

How did the screen score SPC25 (SPC25 component of NDC80 kinetochore complex)?
TNF reporter robust z-score: 2.13; Call: inactive

For SPC25 (SPC25 component of NDC80 kinetochore complex), what was measured?
TNF reporter robust z-score: 1.36; Call: inactive

For AK3 (adenylate kinase 3), what does the deposit list?
TNF reporter robust z-score: -0.26; Call: inactive

For AK3 (adenylate kinase 3), what does the deposit list?
TNF reporter robust z-score: -0.55; Call: inactive

What did the screen give for AK3 (adenylate kinase 3)?
TNF reporter robust z-score: -0.62; Call: inactive

What did the screen give for AK3 (adenylate kinase 3)?
TNF reporter robust z-score: -0.15; Call: inactive

What did the screen give for TTLL7 (tubulin tyrosine ligase like 7)?
TNF reporter robust z-score: -0.03; Call: inactive

How did the screen score TTLL7 (tubulin tyrosine ligase like 7)?
TNF reporter robust z-score: 0.48; Call: inactive

Which result is listed for TTLL7 (tubulin tyrosine ligase like 7)?
TNF reporter robust z-score: 1.56; Call: inactive

What did the screen give for TTLL7 (tubulin tyrosine ligase like 7)?
TNF reporter robust z-score: 2.5; Call: inactive

For KLF9 (KLF transcription factor 9), how do the results read?
TNF reporter robust z-score: 1.31; Call: inactive

What did the screen give for KLF9 (KLF transcription factor 9)?
TNF reporter robust z-score: 1.09; Call: inactive

Which result is listed for KLF9 (KLF transcription factor 9)?
TNF reporter robust z-score: 0.61; Call: inactive

With KLF9 (KLF transcription factor 9), what was measured?
TNF reporter robust z-score: 1.5; Call: inactive

For FAM86C1P (family with sequence similarity 86 member C1, pseudogene), what does the deposit list?
TNF reporter robust z-score: 0.99; Call: inactive

What is on record for FAM86C1P (family with sequence similarity 86 member C1, pseudogene)?
TNF reporter robust z-score: 0.7; Call: inactive

With FAM86C1P (family with sequence similarity 86 member C1, pseudogene), what was measured?
TNF reporter robust z-score: 0.25; Call: inactive

Which result is listed for FAM86C1P (family with sequence similarity 86 member C1, pseudogene)?
TNF reporter robust z-score: 0.56; Call: inactive

Quoted from the entries so far (7 entries):
AFG2A (AAA ATPase AFG2A) | TNF reporter robust z-score = -0.36; Call = inactive
AFG2A (AAA ATPase AFG2A) | TNF reporter robust z-score = -1.07; Call = inactive
AFG2A (AAA ATPase AFG2A) | TNF reporter robust z-score = -0.73; Call = inactive
SPC25 (SPC25 component of NDC80 kinetochore complex) | TNF reporter robust z-score = 0.23; Call = inactive
SPC25 (SPC25 component of NDC80 kinetochore complex) | TNF reporter robust z-score = 1.29; Call = inactive
SPC25 (SPC25 component of NDC80 kinetochore complex) | TNF reporter robust z-score = 2.13; Call = inactive
SPC25 (SPC25 component of NDC80 kinetochore complex) | TNF reporter robust z-score = 1.36; Call = inactive

Continued:
What is on record for PROX1 (prospero homeobox 1)?
TNF reporter robust z-score: 0.03; Call: inactive

For PROX1 (prospero homeobox 1), how do the results read?
TNF reporter robust z-score: 0.42; Call: inactive

For PROX1 (prospero homeobox 1), what does the deposit list?
TNF reporter robust z-score: -0.08; Call: inactive

With PROX1 (prospero homeobox 1), what was measured?
TNF reporter robust z-score: 0.15; Call: inactive

For CSF2 (colony stimulating factor 2), what does the deposit list?
TNF reporter robust z-score: -0.68; Call: inactive

How did the screen score CSF2 (colony stimulating factor 2)?
TNF reporter robust z-score: -1.01; Call: inactive

With CSF2 (colony stimulating factor 2), what was measured?
TNF reporter robust z-score: -1.02; Call: inactive

For TM7SF3 (transmembrane 7 superfamily member 3), what was measured?
TNF reporter robust z-score: 2.32; Call: inactive

What is on record for TM7SF3 (transmembrane 7 superfamily member 3)?
TNF reporter robust z-score: -0.06; Call: inactive

For TM7SF3 (transmembrane 7 superfamily member 3), what does the deposit list?
TNF reporter robust z-score: -0.38; Call: inactive

With TM7SF3 (transmembrane 7 superfamily member 3), what does the deposit list?
TNF reporter robust z-score: -0.13; Call: inactive

How did the screen score ERH (ERH mRNA splicing and mitosis factor)?
TNF reporter robust z-score: -1.53; Call: active

For ERH (ERH mRNA splicing and mitosis factor), what does the deposit list?
TNF reporter robust z-score: -1.4; Call: inactive

For ERH (ERH mRNA splicing and mitosis factor), how do the results read?
TNF reporter robust z-score: -1.73; Call: active

How did the screen score ERH (ERH mRNA splicing and mitosis factor)?
TNF reporter robust z-score: -0.73; Call: inactive

What is on record for PIK3C3 (phosphatidylinositol 3-kinase catalytic subunit type 3)?
TNF reporter robust z-score: 0.62; Call: inactive

For PIK3C3 (phosphatidylinositol 3-kinase catalytic subunit type 3), what was measured?
TNF reporter robust z-score: 1.66; Call: inactive

How did the screen score PIK3C3 (phosphatidylinositol 3-kinase catalytic subunit type 3)?
TNF reporter robust z-score: -0.18; Call: inactive

Which result is listed for PIK3C3 (phosphatidylinositol 3-kinase catalytic subunit type 3)?
TNF reporter robust z-score: 0.51; Call: inactive
